Reference: the supplement of paper PMC10849652
This is one part of the list.

The chains behind the UniProt entries cited, without tags or fusion partners. Where a name states a change or a piece, a line headed by the entry shows the natural chain unless it says otherwise.
UniProt Q9BS18, whole entry, looked up: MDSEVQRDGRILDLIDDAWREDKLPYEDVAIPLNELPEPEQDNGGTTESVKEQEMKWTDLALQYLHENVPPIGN
UniProt Q68DC2: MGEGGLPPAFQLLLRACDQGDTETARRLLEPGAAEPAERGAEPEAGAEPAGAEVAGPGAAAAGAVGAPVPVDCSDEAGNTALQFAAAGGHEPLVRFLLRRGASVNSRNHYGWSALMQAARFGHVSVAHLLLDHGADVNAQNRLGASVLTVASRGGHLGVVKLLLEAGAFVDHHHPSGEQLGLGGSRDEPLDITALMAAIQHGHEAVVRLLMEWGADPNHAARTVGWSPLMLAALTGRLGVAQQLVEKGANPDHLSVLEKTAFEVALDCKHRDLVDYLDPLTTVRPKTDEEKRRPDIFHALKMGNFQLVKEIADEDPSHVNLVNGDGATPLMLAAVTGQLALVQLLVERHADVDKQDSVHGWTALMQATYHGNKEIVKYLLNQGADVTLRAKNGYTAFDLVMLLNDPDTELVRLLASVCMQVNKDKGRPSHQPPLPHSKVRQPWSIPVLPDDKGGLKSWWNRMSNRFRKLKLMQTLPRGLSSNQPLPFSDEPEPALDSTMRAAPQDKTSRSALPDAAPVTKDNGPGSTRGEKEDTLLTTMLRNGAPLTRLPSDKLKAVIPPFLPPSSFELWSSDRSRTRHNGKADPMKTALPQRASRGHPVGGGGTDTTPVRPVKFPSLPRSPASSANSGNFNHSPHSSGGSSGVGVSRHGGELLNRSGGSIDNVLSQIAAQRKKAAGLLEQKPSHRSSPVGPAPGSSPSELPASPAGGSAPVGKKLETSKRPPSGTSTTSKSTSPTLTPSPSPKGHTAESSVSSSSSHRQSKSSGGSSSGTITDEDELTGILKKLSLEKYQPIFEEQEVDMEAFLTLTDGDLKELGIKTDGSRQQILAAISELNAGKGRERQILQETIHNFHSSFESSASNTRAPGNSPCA
UniProt Q9ULJ7: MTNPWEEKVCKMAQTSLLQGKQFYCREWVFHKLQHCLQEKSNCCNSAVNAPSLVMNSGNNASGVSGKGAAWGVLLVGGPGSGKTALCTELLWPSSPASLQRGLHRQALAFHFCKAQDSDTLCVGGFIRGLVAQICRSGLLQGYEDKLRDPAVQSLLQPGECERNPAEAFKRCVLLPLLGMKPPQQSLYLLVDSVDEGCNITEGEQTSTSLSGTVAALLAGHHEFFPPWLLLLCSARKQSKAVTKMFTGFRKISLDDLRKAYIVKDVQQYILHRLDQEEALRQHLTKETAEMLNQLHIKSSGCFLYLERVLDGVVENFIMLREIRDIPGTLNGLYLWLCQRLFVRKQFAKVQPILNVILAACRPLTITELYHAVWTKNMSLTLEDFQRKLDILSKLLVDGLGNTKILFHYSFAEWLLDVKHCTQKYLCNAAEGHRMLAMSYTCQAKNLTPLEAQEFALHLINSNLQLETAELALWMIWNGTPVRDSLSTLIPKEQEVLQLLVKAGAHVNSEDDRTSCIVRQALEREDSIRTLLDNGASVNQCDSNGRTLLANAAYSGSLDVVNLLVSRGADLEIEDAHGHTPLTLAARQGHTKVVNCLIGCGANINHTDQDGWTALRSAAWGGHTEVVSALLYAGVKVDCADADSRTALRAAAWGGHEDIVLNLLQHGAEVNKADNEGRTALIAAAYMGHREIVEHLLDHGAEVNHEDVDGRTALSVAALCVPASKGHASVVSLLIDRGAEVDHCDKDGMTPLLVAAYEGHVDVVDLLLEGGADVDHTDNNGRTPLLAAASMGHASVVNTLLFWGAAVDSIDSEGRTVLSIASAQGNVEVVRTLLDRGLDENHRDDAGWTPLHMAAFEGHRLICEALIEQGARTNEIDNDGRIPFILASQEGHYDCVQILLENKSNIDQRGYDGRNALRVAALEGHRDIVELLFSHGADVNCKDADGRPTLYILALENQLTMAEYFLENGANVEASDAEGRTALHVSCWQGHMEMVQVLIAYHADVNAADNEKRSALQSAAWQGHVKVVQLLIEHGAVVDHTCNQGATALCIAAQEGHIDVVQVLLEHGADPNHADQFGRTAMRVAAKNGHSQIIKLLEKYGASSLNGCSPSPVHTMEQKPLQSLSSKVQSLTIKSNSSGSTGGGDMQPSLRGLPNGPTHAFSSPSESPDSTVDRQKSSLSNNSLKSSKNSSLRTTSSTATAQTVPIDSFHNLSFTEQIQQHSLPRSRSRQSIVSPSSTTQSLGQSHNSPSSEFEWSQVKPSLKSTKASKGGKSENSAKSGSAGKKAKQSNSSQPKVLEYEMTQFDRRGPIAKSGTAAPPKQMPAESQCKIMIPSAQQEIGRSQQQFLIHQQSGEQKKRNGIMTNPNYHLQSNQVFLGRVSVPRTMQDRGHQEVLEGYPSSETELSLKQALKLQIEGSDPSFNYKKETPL
UniProt Q6UB98: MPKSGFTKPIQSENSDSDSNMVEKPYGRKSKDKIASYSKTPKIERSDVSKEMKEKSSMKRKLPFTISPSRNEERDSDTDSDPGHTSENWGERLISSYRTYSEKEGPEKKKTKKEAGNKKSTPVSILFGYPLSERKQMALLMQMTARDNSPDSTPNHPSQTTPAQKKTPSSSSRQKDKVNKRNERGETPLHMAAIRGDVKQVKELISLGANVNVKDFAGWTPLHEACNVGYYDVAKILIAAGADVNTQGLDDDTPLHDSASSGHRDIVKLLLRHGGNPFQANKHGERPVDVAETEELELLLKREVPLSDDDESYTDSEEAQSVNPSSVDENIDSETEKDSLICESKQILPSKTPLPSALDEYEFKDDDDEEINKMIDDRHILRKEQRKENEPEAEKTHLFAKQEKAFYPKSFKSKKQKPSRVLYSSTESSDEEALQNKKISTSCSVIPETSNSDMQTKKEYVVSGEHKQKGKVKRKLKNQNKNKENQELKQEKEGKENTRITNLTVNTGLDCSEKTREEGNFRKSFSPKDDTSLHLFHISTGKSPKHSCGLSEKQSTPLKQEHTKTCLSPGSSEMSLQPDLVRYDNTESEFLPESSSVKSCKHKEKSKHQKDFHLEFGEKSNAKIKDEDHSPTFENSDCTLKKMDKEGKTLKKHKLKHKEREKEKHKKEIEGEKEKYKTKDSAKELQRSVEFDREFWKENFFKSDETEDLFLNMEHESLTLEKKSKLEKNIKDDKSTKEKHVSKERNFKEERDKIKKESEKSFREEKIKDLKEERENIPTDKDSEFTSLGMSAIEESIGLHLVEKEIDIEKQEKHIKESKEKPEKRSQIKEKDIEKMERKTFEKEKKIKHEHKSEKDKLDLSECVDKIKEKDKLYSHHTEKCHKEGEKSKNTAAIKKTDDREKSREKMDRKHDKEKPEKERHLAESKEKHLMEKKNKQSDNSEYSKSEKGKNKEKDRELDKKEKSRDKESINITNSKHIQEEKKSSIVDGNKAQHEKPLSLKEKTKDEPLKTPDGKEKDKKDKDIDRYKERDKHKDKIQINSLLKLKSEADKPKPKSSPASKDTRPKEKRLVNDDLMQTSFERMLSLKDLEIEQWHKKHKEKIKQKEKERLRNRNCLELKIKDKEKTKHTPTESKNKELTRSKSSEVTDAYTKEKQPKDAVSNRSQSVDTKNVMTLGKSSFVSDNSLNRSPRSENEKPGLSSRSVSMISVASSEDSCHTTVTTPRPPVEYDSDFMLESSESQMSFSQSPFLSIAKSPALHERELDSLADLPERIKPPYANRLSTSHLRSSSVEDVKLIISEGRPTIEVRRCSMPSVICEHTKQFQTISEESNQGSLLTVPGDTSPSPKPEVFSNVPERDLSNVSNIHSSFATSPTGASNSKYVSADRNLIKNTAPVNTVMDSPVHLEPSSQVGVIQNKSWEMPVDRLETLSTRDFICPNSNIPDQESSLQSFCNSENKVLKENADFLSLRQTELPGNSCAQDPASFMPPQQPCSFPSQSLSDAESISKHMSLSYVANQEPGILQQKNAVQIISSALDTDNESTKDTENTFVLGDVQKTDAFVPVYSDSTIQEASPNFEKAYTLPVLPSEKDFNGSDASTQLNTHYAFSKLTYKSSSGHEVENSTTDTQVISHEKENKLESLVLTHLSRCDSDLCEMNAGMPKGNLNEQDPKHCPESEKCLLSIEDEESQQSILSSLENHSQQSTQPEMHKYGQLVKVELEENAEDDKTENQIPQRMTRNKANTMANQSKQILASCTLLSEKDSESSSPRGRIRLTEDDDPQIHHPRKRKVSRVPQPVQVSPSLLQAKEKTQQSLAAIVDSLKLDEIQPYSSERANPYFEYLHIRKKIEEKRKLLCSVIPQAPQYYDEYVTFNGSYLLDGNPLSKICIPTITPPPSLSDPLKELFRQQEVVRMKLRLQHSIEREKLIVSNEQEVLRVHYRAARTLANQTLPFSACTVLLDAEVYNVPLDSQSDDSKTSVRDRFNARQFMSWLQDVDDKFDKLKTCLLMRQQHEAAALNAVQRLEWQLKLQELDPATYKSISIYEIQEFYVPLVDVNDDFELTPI
UniProt Q9UNK9: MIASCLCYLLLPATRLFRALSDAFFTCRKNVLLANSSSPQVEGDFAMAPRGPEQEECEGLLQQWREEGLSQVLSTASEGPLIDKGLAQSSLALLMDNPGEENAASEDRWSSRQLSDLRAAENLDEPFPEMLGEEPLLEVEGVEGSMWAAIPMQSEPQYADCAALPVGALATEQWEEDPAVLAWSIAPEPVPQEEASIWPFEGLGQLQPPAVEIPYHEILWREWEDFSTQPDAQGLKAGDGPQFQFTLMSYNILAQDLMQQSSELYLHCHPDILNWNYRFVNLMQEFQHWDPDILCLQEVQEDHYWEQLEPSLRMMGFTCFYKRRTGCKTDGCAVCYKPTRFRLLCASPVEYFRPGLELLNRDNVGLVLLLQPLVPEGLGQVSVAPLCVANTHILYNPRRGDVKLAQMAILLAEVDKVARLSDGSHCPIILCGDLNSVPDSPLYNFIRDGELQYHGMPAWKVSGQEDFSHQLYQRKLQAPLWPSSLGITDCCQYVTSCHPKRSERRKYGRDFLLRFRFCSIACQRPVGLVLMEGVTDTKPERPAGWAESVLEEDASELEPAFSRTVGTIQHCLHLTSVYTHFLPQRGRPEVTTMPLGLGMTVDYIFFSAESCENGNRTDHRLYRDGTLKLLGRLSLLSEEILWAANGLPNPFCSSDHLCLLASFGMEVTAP
UniProt Q9NYG5, whole entry, looked up: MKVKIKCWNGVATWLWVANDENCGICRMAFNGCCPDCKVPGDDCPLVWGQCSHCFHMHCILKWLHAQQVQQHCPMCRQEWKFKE
UniProt P51648: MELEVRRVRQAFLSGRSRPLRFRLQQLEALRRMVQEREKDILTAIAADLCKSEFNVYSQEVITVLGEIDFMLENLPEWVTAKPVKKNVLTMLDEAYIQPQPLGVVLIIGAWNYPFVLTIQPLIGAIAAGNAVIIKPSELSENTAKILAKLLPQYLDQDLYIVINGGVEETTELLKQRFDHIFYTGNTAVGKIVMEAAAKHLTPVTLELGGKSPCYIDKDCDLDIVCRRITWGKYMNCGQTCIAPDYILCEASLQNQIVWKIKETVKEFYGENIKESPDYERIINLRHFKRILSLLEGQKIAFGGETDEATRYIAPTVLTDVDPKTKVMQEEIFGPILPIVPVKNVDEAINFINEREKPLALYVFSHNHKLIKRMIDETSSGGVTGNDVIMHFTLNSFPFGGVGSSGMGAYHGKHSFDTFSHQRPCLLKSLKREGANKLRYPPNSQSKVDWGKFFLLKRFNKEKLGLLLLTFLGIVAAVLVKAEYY
UniProt A1A5B4: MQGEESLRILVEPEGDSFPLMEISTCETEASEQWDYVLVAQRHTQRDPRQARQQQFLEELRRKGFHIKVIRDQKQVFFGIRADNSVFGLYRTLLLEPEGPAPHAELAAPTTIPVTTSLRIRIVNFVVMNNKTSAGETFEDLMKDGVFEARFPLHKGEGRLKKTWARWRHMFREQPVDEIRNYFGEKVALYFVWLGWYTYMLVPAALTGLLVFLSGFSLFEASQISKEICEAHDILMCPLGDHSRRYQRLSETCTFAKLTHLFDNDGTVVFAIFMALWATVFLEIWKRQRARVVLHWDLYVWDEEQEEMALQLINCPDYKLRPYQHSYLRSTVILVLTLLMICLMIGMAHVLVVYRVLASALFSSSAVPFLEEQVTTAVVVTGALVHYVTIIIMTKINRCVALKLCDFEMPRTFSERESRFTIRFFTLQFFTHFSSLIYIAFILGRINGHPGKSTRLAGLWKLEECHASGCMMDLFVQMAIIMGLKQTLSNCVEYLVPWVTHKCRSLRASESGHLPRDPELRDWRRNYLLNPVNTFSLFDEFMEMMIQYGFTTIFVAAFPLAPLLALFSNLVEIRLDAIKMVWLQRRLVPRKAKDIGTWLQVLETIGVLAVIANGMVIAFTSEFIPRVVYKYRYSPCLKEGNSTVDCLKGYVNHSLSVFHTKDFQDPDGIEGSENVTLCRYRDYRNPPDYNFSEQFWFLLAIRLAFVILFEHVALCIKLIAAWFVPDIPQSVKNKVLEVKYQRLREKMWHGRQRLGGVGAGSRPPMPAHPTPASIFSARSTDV

These targets were tested with C1CN(CCC1(CC2=CC=C(C=C2)Cl)N)C3=NC=NC4=C3C=CN4 (assay: log2 fold change, soluble protein after heating vs DMSO (PISA); higher = thermal stabilisation; K562 lysate, 10 uM; active = over 0.2 and 3.5 SD of the protein, either way, in both replicates (recomputed)).
How it was run: (§1)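 Quantification was by TMTpro 16plex LC-MS/MS with equalised channel sums, applied to the supernatant after 21,000xg for 90 min. Samples were crude K562 extract at 1 mg/mL protein in PBS pH 7.4 with 1 mM MgCl2, treated with 10 μM compound for 30 min, heated for 3 min across 48°C-58°C, pooled and brought to 0.5% NP-40 at 4°C. Values are log-two fold changes in thermal stability relative to solvent controls, from duplicates.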

log2 fold change, inactive:
ANKRD31 (UniProt Q8N7Z5) 0.079
ALAS1 (UniProt P13196) -0.122
ANAPC15 isoform 2 (UniProt P60006) -0.046
ANAPC13 (UniProt Q9BS18) -0.077
ALKBH7 (UniProt Q9BT30) 0.027
AMOT (UniProt Q4VCS5) -0.031
ALDH1A3 (UniProt P47895) 0.079
ANKS6 isoform 4 (UniProt Q68DC2) 0.011
ANKS3 (UniProt Q6ZW76) 0.006
ANP32E isoform 3 (UniProt Q9BTT0) -0.01
ANKRD16 (UniProt Q6P6B7) 0.012
ANKRD30A (UniProt Q9BXX3) 0.144
AKTIP isoform 2 (UniProt Q9H8T0) 0.166
ANKRD13B (UniProt Q86YJ7) -0.071
ANXA6 (UniProt E5RK69) 0.054
ANKRD50 (UniProt Q9ULJ7) -0.015
ANKRD12 (UniProt Q6UB98) 0.133

The targets below were run with C1COCCN1CCN2C3=CC=CC=C3N=C2NC(=O)C4=CC(=CC=C4)[N+](=O)[O-] [IRAK-1-4 Inhibitor I] in the same assay as above.
How it was run: as §1

log2 fold change, inactive:
AP2M1 (UniProt C9JTK4) -0.048
ALDH18A1 isoform 2 (UniProt P54886) 0.046
ANGEL1 (UniProt Q9UNK9) 0.041
ALAS1 (UniProt P13196) -0.036
ANKIB1 (UniProt Q9P2G1) -0.052
ALDH3A1 (UniProt P30838) 0.059
ANKRD13C (UniProt Q8N6S4) -0.095
ALKBH7 (UniProt Q9BT30) -0.04
ANAPC11 (UniProt Q9NYG5) -0.051
AMOT (UniProt Q4VCS5) 0.07
AP1B1 isoform 3 (UniProt Q10567) 0.002
ANKS6 isoform 4 (UniProt Q68DC2) -0.056
ALDH3A2 isoform 2 (UniProt P51648) -0.376
ANKRD30A (UniProt Q9BXX3) -0.176
AKTIP isoform 2 (UniProt Q9H8T0) 0.095
ANKHD1 (UniProt D6RHC4) -0.025
ANO9 (UniProt A1A5B4) 0.138
ANK2 (UniProt Q01484) 0.06
ANKRD50 (UniProt Q9ULJ7) -0.045
ALDH9A1 (UniProt P49189) 0.029
ANKRD12 (UniProt Q6UB98) 0.119
